Experimental data: PubChem BioAssay AID1259267 (Sanger Institute, 2017)
Assay: 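Which kinases and bowel-cancer genes GP5D cells need, with or without anchor drugs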 (primary screen). System: human GP5D colorectal cancer cells. Knock-down reagent: siRNA pool against human genes. Treatment: anchor drugs at low dose: BYL719 1 µM, cetuximab 5 µg/ml, trametinib 10 nM, or DMSO vehicle. Measurement: 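Mean replicate viability versus non-targeting pool, given as knock-down-alone robust z-score, DMSO fraction, and synergy with low-dose BYL719, cetuximab or trametinib (1 µM, 5 µg/ml, 10 nM)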. Scale: robust z-score, knock-down alone and viability with DMSO: higher = more viable cells; synergy score with trametinib and synergy score with BYL719 and synergy score with cetuximab: higher = stronger synthetic lethal synergy with drug. Rule for the call: 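Active (essential alone) if knock-down without drug gives robust z-score under -3; drug synergy does not count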. Calls: active = essential alone; inactive = not essential.
The whole screen tested 794 reagents; this is a part drawn at random. 9 of all reagents (1.1%) were called active. 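Viability capped at 1; calls reflect loss of viability from knock-down alone, not synergy with drugs.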 Reagent sequences are not shown. Not stated in the record: the amount of reagent, the time to read-out.

The first 2 entries, ahead of the listing:
gene | robust z-score, knock-down alone | viability with DMSO (fraction of control) | synergy score with trametinib | synergy score with BYL719 | synergy score with cetuximab | Call
WT1 | -0.0959 | 0.807 | -0.352 | -0.319 | -0.241 | inactive
HIPK3 | -2.06 | 0.391 | -0.105 | -0.278 | -0.332 | inactive

The list itself, from the first entry:
gene | robust z-score, knock-down alone | viability with DMSO (fraction of control) | synergy score with trametinib | synergy score with BYL719 | synergy score with cetuximab | Call
WT1 | -0.0959 | 0.807 | -0.352 | -0.319 | -0.241 | inactive
HIPK3 | -2.06 | 0.391 | -0.105 | -0.278 | -0.332 | inactive
ALPK3 | 0.817 | 1 | -0.197 | -0.277 | -0.0227 | inactive
STKLD1 | -0.554 | 0.709 | 0.00175 | 0.0347 | -0.00368 | inactive
CSNK2B | -0.391 | 0.744 | -0.00675 | -0.0515 | -0.179 | inactive
TESK2 | 0.817 | 1 | -0.197 | -0.361 | -0.142 | inactive
TPK1 | -0.894 | 0.637 | 0.0689 | 0.0306 | 0.0179 | inactive
BRDT | -1.54 | 0.5 | 0.0901 | -0.308 | -0.153 | inactive
SIK1 | -1.71 | 0.464 | -0.219 | -0.259 | -0.364 | inactive
PHKB | -0.711 | 0.676 | 0.131 | -0.0583 | -0.0172 | inactive
CAMK2D | 0.817 | 1 | -0.129 | -0.361 | -0.142 | inactive
GRK2 | 0.663 | 0.967 | 0.429 | -0.0933 | 0.0351 | inactive
HK3 | 0.15 | 0.859 | -0.203 | -0.371 | -0.263 | inactive
EPHA6 | -1.52 | 0.506 | 0.179 | -0.121 | 0.0762 | inactive
NEK1 | -1.38 | 0.534 | -0.0103 | -0.286 | -0.182 | inactive
SRPK3 | 0.535 | 0.94 | -0.235 | -0.262 | -0.0777 | inactive
DSTYK | 0.736 | 0.983 | 0.263 | 0.174 | -0.114 | inactive
PKN2 | -1.39 | 0.532 | -0.188 | -0.153 | -0.0289 | inactive
ATP23 | -1.35 | 0.541 | 0.105 | -0.126 | 0.0598 | inactive
THNSL1 | 0.817 | 1 | -0.11 | -0.257 | -0.142 | inactive
